These are yes or no findings as the source states them, for the method shown. Some entries that bind do so weakly or less than the wild type. Blank lines part the entries; values can stand above or below the binder they belong to.
Assays:
[1] = target: HER2 (ErbB2/Neu) on the surface of HER2-overexpressing cancer cells (human) (UniProt P04626); experiment: flow cytometry on viable HER2-overexpressing cancer cells (BT474, SkBr3, SkOv3)
[2] = target: HER2 (ErbB2/Neu) on the surface of HER2-overexpressing cancer cells (human) (UniProt P04626); experiment: flow cytometry on BT474 cells, association time course of Alexa Fluor-488 labelled DARPin
[3] = target: HER2 (ErbB2/Neu) on the surface of HER2-overexpressing cancer cells (human) (UniProt P04626); experiment: flow cytometry, dissociation of Alexa488-labelled agent from the cell surface in the presence of 100 nM unlabelled agent
[4] = target: domain 1 of the ECD HER2 (individually expressed) (human) (UniProt P04626); experiment: ELISA on domain 1 of the ECD HER2

binding [2]: binds
binding [3]: binds
B1: DARPin H14 (designed binder)
chain: GSDLGKKLLEAARAGQDDEVRILMANGADVNATDIHGHTPLHLAAAMGHLEIVEVLLKNGADVNANDWRGFTPLHLAALNGHLEIVEVLLKNGADVNATDTAGNTPLHLAAWFGHLEIVEVLLKNGADVNAQDKFGKTAFDISIDNGNEDLAEILQKLN
binding [1]: binds

binding [4]: binds
B2: DARPin 926 (designed binder)
chain: MRGSHHHHHHGSDLGKKLLEAARAGQDDEVRILMANGADVNAKDFYGITPLHLAAAYGHLEIVEVLLKHGADVNAHDWNGWTPLHLAAKYGHLEIVEVLLKHGADVNAIDNAGKTPLHLAAAHGHLEIVEVLLKYGADVNAQDKFGKTAFDISIDNGNEDLAEILQKLN
notes: Member of the 9XX collection

Reference: patent US20190127481A1 (UNIVERSIT T Z RICH, published 2019)
